Paper PMC12083247
These are yes or no findings as the source states them, for the method shown. Binding seen in cells or lysates may run through a third protein. A yes stands for co-enrichment or nearness to the bait. Other partners may have been found.

B1: annexin A1 (protein, UniProt P04083 1-346)
chain: MAMVSEFLKQAWFIENEEQEYVQTVKSSKGGPGSAVSPYPTFNPSSDVAALHKAIMVKGVDEATIIDILTKRNNAQRQQIKAAYLQETGKPLDETLKKALTGHLEEVVLALLKTPAQFDADELRAAMKGLGTDEDTLIEILASRTNKEIRDINRVYREELKRDLAKDITSDTSGDFRNALLSLAKGDRSEDFGVNEDLADSDARALYEAGERRKGTDVNVFNTILTTRSYPQLRRVFQKYTKYSKHDMNKVLDLELKGDIEKCLTAIVKCATSKPAFFAEKLHQAMKGVGTRHKALIRIMVSRSEIDMNDIKAFYQKMYGISLCQAILDETKGDYEKILVALCGGN
B2: annexin A4 (protein, UniProt P09525 1-319)
chain: MATKGGTVKAASGFNAMEDAQTLRKAMKGLGTDEDAIISVLAYRNTAQRQEIRTAYKSTIGRDLIDDLKSELSGNFEQVIVGMMTPTVLYDVQELRRAMKGAGTDEGCLIEILASRTPEEIRRISQTYQQQYGRSLEDDIRSDTSFMFQRVLVSLSAGGRDEGNYLDDALVRQDAQDLYEAGEKKWGTDEVKFLTVLCSRNRNHLLHVFDEYKRISQKDIEQSIKSETSGSFEDALLAIVKCMRNKSAYFAEKLYKSMKGLGTDDNTLIRVMVSRAEIDMLDIRAHFKRLYGKSLYSFIKGDTSGDYRKVLLVLCGGDD
B3: annexin A6 (protein, UniProt P08133 1-673)
chain: MAKPAQGAKYRGSIHDFPGFDPNQDAEALYTAMKGFGSDKEAILDIITSRSNRQRQEVCQSYKSLYGKDLIADLKYELTGKFERLIVGLMRPPAYCDAKEIKDAISGIGTDEKCLIEILASRTNEQMHQLVAAYKDAYERDLEADIIGDTSGHFQKMLVVLLQGTREEDDVVSEDLVQQDVQDLYEAGELKWGTDEAQFIYILGNRSKQHLRLVFDEYLKTTGKPIEASIRGELSGDFEKLMLAVVKCIRSTPEYFAERLFKAMKGLGTRDNTLIRIMVSRSELDMLDIREIFRTKYEKSLYSMIKNDTSGEYKKTLLKLSGGDDDAAGQFFPEAAQVAYQMWELSAVARVELKGTVRPANDFNPDADAKALRKAMKGLGTDEDTIIDIITHRSNVQRQQIRQTFKSHFGRDLMTDLKSEISGDLARLILGLMMPPAHYDAKQLKKAMEGAGTDEKALIEILATRTNAEIRAINEAYKEDYHKSLEDALSSDTSGHFRRILISLATGHREEGGENLDQAREDAQVAAEILEIADTPSGDKTSLETRFMTILCTRSYPHLRRVFQEFIKMTNYDVEHTIKKEMSGDVRDAFVAIVQSVKNKPLFFADKLYKSMKGAGTDEKTLTRIMVSRSEIDLLNIRREFIEKYDKSLHQAIEGDTSGDFLKALLALCGGED
B4: annexin A7 (protein, UniProt P20073 1-488)
chain: MSYPGYPPTGYPPFPGYPPAGQESSFPPSGQYPYPSGFPPMGGGAYPQVPSSGYPGAGGYPAPGGYPAPGGYPGAPQPGGAPSYPGVPPGQGFGVPPGGAGFSGYPQPPSQSYGGGPAQVPLPGGFPGGQMPSQYPGGQPTYPSQINTDSFSSYPVFSPVSLDYSSEPATVTQVTQGTIRPAANFDAIRDAEILRKAMKGFGTDEQAIVDVVANRSNDQRQKIKAAFKTSYGKDLIKDLKSELSGNMEELILALFMPPTYYDAWSLRKAMQGAGTQERVLIEILCTRTNQEIREIVRCYQSEFGRDLEKDIRSDTSGHFERLLVSMCQGNRDENQSINHQMAQEDAQRLYQAGEGRLGTDESCFNMILATRSFPQLRATMEAYSRMANRDLLSSVSREFSGYVESGLKTILQCALNRPAFFAERLYYAMKGAGTDDSTLVRIVVTRSEIDLVQIKQMFAQMYQKTLGTMIAGDTSGDYRRLLLAIVGQ

Molecular target: CAPN2[C105S]-3xFlag-6xHis in complex with CAPNS1(86–268)
Experiment: affinity purification with mass spectrometry; substrate trapping: 3xFlag baits on anti-Flag agarose; HCT116 cytosol with 2 mM CaCl2 and E64; EGTA (5 mM) elutions analysed by high-resolution mass spectrometry; only the target purified

binding, binds:
B1, B2, B3, B4
